Test results reported in the supplement of paper PMC5949888.
± gives the standard deviation of the averaged measurements. Most values lie at the floor of the assay. Slopes are relative: functional sequences can read slightly below zero.

Tested on: Saccharomyces cerevisiae PS128 hsf1 delta, HSF1(1-493) fusion
Assay: growth estimate (transactivation domain function in HSF1 fusion, heat-shock survival) (a.u. (slope of normalised read count over time)); higher = stronger growth at 37°C, i.e. more transactivation activity
Conditions: library: random library
Experimental: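 Random 60-nt DNA library encoding peptides of up to 20 aa, fused to the C-terminus of yeast HSF1 residues 1-493 (C-terminal TAD deleted) and expressed from the native HSF1 promoter on a CEN plasmid in hsf1-deleted S. cerevisiae PS128. Cells were selected at 37°C on -trp 5-FOA plates for 0, 2, 4, 6 and 8 days and amplicons were sequenced. Growth estimate is the slope of a robust linear fit of total-sum-normalised read counts (normalised to the first time point) over time, using at least 2 replicates. Sequences are classed functional (TAD activity) above a threshold of -0.13, set from stop-codon control sequences.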

Row | Substance | growth estimate
1 | TSTEAAGYFSLSVFKLGYRH | < -0.25
2 | RWGLQVTKQRERVGVMAQRV | < -0.25
3 | SIGSRHLWGVSGSAVSGCRP | -0.245
4 | RYRVGLRT | < -0.25
5 | RQGQSGSEPG | < -0.25
6 | RRGLSNREQHECAHYGFARR | -0.239
7 | GVCLSKDLAGHIS | < -0.25
8 | FEWPGISVGPSGLLFLGEHA | < -0.25
9 | EPKAASRIGIAPAKQVLRGT | < -0.25
10 | GEIHSRGHIPMGVDAQEARV | -0.226
11 | CRALTYPDTVNANAQQTGRG | < -0.25
12 | VLDTVPVSIRGLKK | < -0.25
13 | VGVF | < -0.25
14 | CSEFLELPAERH | < -0.25
15 | CTSDTRANDWGR | < -0.25
16 | RADTFSRTYWFGVICLG | < -0.25
17 | SVKQMPKSICMY | < -0.25
18 | KTRGYTAVAYVN | < -0.25
19 | RKSIRRLGSV | < -0.25
20 | GFS | < -0.25
21 | CNAAVPKRRKRL | < -0.25
22 | SRRRRCMGPAAV | < -0.25
23 | AMSEAA | < -0.25
24 | NMSRVRRREIILRASTDGDP | < -0.25
25 | TGKVNIYATHAEPLNFLDQG | < -0.25
26 | PTGLKCSFSGFFYHAAFPNR | < -0.25

Part of the list above, as a markdown table.

| Row | Substance | growth estimate |
| --- | --- | --- |
| 11 | CRALTYPDTVNANAQQTGRG | < -0.25 |
| 12 | VLDTVPVSIRGLKK | < -0.25 |
| 13 | VGVF | < -0.25 |
| 14 | CSEFLELPAERH | < -0.25 |

Continuation:

Row | Substance | growth estimate
27 | RLCYREVNWQVLVVAEVLSP | < -0.25
28 | LYRSVITPPQVSAMALSALP | < -0.25
29 | WYSSPEYSELDYIST | < -0.25
30 | GEG | -0.132
31 | FREKYDPLRAYGKPMVLLCN | < -0.25
32 | WVGGRPVLKAGGQSELLFPG | < -0.25
33 | FPCAFIRSVCKGSQVGCILE | < -0.25
34 | LGGYWQ | < -0.25
35 | GRSLKEETNVEDPIGIQESL | < -0.25
36 | QVDVLLKLILLVKRKTVRFQ | < -0.25
37 | PRTSCAVLKTLLAVRELLAQ | < -0.25
38 | ANVLFLLRGI | < -0.25
39 | PTKVCFRRR | < -0.25
40 | AGSVQGDRRHGQT | < -0.25
41 | LPVYNMRTINGQDVWISAPY | < -0.25
42 | WFVGPISHINWVCKGTRSSS | < -0.25
43 | CMC | -0.25
44 | QSGW | < -0.25
45 | LNRPGC | < -0.25
46 | KLLEKRAGGPSITRGFQGRT | -0.192
47 | PACDNGSTSSPPLQPVCVSS | < -0.25
48 | FRKNLLLLLRNWLPYAECRQ | < -0.25
49 | CTQGGVSGHRRGRQAVFTTS | < -0.25
50 | WPLAVKSSPNWGFKAVLTNI | < -0.25
51 | LARICGSTNSWGVESMTGIH | < -0.25
52 | GCLSDKGTRDTKGVQSLSCA | < -0.25

Row | Substance | growth estimate
53 | YGSGSQVGIRRTALPAEIFA | < -0.25
54 | LGHHHRH | < -0.25
55 | EGSGSCYKRPSLRIGKTGVV | < -0.25
56 | GWGISNFRAHA | < -0.25
57 | FGKWYGLNIRLSLRDKLHLP | < -0.25
58 | SFVTSGKAQGNARH | < -0.25
59 | TFRGWSCNRSEFLERLDKLA | -0.248
60 | RRKRPFGSGQSKCVLNPFYT | < -0.25
61 | TAVYLLPSVEMAVPASLLRV | < -0.25
62 | LEK | < -0.25
63 | LPGRPTDCIRLTASVEELSR | < -0.25
64 | VRS | < -0.25
65 | ILINVSGLSHTANSLLP | -0.25
66 | LSNMAGAICVTPRPTRLCSG | < -0.25
67 | ISEVIYLHIVSEWAYISKRD | < -0.25
68 | LRTGSEEDYACGDAIVGTMA | < -0.25
69 | TSAWMHRGIEEKRPVVC | < -0.25
70 | HKWYGAFGR | < -0.25
71 | MDVVLTSLFGF | < -0.25
72 | VSYTWSYEADGVLAERSLIS | < -0.25
73 | EKRLLHFG | < -0.25
74 | YRSGLCL | < -0.25
75 | VRNGSAGELVYISFRMALVT | < -0.25
76 | HVAFIVSVTWA | < -0.25
77 | LGPWSMIGGQH | < -0.25
78 | IQTDEAATLNYGPVPRGSLD | < -0.25

Row | Substance | growth estimate
79 | SRFYRS | < -0.25
80 | YSGHLGSHNTQRAGNKS | < -0.25
81 | LHRTCSASWSGFMFKASTRV | < -0.25
82 | SHRYSGRVQRGRCLRPSHTV | < -0.25
83 | ITGLLNWNGRGVYMRRSRPC | -0.229
84 | KVSVLGSPICVQIR | < -0.25
85 | GCVQSF | < -0.25
86 | YEIGCRGVPGRVLRYYDGAG | < -0.25
87 | QGGYCACTLVLRAIEAAHYD | < -0.25
88 | TTPSRF | < -0.25
89 | RFLCLDSVHLLRVNTEGVTR | < -0.25
90 | HRFWVASAHVSVRRS | < -0.25
91 | TSGHGEQTVVAVANIMI | < -0.25
92 | IYRNKQKGVLTLEEPGISGP | < -0.25
93 | MSITRETGVEIWLSRDLGHI | < -0.25
94 | YWDIIRNRIRLRT | < -0.25
95 | HNAMDIVRMRL | < -0.25
96 | DISSLPKVHQGPVRT | < -0.25
97 | RVDLV | < -0.25
98 | VRRGLLCGSTMRWERSGV | < -0.25
99 | ALFGRAGQGSRSARC | < -0.25
100 | QYIGACTIHLTDCGRSWCGS | < -0.25
101 | RSRRDLGLPLGGCVSLRSVH | -0.0187
102 | VATRGLQDSTGNCDSFSGS | < -0.25
103 | HTKCSVVDSYAVAQLKTGDY | < -0.25
104 | VGGFDDMQKPASFGASMSRY | < -0.25

Row | Substance | growth estimate
105 | YVVVSKFS | < -0.25
106 | RLSS | -0.243
107 | MGSLGVQSGRGSHFRRHADG | < -0.25
108 | RIWSGRRTDAILVYGSRTTA | < -0.25
109 | RYELKVFDDHIVTPYSELMD | < -0.25
110 | DNRQCPV | < -0.25
111 | VVEATGQRVIIWLLSPRCRR | < -0.25
112 | EAADAWS | < -0.25
113 | GIRAWSDFTRGGVPDHIWRV | < -0.25
114 | SCGSHLSEPM | -0.18
115 | HGIIEYM | < -0.25
116 | VSWV | < -0.25
117 | GGMLGAGTAFETLLAQARED | 0.379
118 | RIVR | < -0.25
119 | QVR | -0.246 ± 0.0076
120 | LGTVGLLLSASR | < -0.25
121 | PILQVDHVTAMIANVKRR | < -0.25
122 | GQYVVDSTSTSLNGQGKALD | < -0.25
123 | IVL | < -0.25
124 | FSSVY | < -0.25
125 | VICKTRGMGKDSCLCVNRC | < -0.25
126 | VTLG | < -0.25
127 | FTVKRRRLLTK | < -0.25
128 | TFSTSADILEVEYWV | < -0.25
129 | RNDQA | < -0.25
130 | GCSGRPDGVDRRVAE | < -0.25

Row | Substance | growth estimate
131 | KGAWSARIWENEFYVLRAGR | < -0.25
132 | RTVVKRPVYSVYSPASKMIR | < -0.25
133 | RPNCTLWARRCPRYSPPGKS | -0.246
134 | RTIPDGAYLMSVSSQ | < -0.25
135 | TCD | < -0.25
136 | KCADCADGLIFEAFEGAEHV | < -0.25
137 | HCRGFGVGRLALAFTIWTTR | < -0.25
138 | PLPGRLVQKERQHCRDPTAY | < -0.25
139 | LKGGRVASLRRKLEVPIWGC | < -0.25
140 | VVACDRFGLDSSTAEATDRL | < -0.25
141 | AESVARNR | < -0.25
142 | SVRRYAHDFL | < -0.25
143 | SNVSNLTGRVSSIIGAVRRS | < -0.25
144 | PSRGAAHGAGHDCRPRRLKG | < -0.25
145 | AKHIKLNVFNEIWGQRVVK | < -0.25
146 | WTRRM | < -0.25
147 | LNGTSSCRLNVFQCGG | < -0.25
148 | GYWSFKHGINKTKP | < -0.25
149 | SLLVDVSDLCWGGVGRGSGV | < -0.25
150 | CECWGTVIDQHWRRPRG | < -0.25
151 | NIGPCGLMSRIGLGTRLLRQ | < -0.25

Looked up one by one from the list above (five):
Row | Substance | growth estimate
147 | LNGTSSCRLNVFQCGG | < -0.25
132 | RTVVKRPVYSVYSPASKMIR | < -0.25
148 | GYWSFKHGINKTKP | < -0.25
144 | PSRGAAHGAGHDCRPRRLKG | < -0.25
131 | KGAWSARIWENEFYVLRAGR | < -0.25
